These are yes or no findings as the source states them, for the method shown. In cells and extracts the contact can be indirect. Some entries that bind do so weakly or less than the wild type.
Molecular target: 3 × Flag-ATG14 (UniProt Q6ZNE5)
Test: co-IP; HeLa cell lysates overexpressing 3 x Flag-ATG14 incubated with anti-Flag M2 agarose beads at 4 °C overnight, three washes, eluted with 2 x SDS sample buffer, Western blot for SNAP47 and Flag

By UniProt entry, the sequences of proteins in these tests, tags left out.
UniProt Q6ZNE5: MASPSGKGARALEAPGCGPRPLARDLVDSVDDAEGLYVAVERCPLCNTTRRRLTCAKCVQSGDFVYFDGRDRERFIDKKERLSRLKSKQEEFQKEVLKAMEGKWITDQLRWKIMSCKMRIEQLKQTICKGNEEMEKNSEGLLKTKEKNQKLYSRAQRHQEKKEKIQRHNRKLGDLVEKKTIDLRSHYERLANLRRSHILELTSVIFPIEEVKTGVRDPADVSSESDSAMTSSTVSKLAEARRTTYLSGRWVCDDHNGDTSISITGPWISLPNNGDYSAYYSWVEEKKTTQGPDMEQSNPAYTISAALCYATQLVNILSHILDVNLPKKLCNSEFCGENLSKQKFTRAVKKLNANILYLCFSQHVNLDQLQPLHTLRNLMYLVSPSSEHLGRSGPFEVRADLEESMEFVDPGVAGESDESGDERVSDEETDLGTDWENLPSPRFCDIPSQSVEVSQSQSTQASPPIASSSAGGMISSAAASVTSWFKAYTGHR

- binding: binds
B1: SNAP47 (synaptosome associated protein 47) (protein, UniProt Q5SQN1 1-464)
chain: MRAARRGLHCAGAERPRRRGRLWDSSGVPQRQKRPGPWRTQTQEQMSRDVCIHTWPCTYYLEPKRRWVTGQLSLTSLSLRFMTDSTGEILVSFPLSSIVEIKKEASHFIFSSITILEKGHAKHWFSSLRPSRNVVFSIIEHFWRELLLSQPGAVADASVPRTRGEELTGLMAGSQKRLEDTARVLHHQGQQLDSVMRGLDKMESDLEVADRLLTELESPAWWPFSSKLWKTPPETKPREDVSMTSCEPFGKEGILIKIPAVISHRTESHVKPGRLTVLVSGLEIHDSSSLLMHRFEREDVDDIKVHSPYEISIRQRFIGKPDMAYRLISAKMPEVIPILEVQFSKKMELLEDALVLRSARTSSPAEKSCSVWHAASGLMGRTLHREPPAGDQEGTALHLQTSLPALSEADTQELTQILRRMKGLALEAESELERQDEALDGVAAAVDRATLTIDKHNRRMKRLT
